From patent US20160272706A1
These are yes or no findings as the source states them, for the method shown. Some binding calls cover weakened binding; strength is not graded here.

Amino acid sequences for entries named in this document (tags omitted). Residues count along the entry.
UniProt P35225, residues 35-146: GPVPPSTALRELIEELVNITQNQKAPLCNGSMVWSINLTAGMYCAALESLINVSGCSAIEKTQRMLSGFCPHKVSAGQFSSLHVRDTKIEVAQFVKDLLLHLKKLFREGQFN

Target: Human IL-13 (human) (UniProt P35225)
Experiment: biochemical receptor-ligand inhibition assay and biological TF-1 assay

B1: 13NG0027 (antibody, V domains shown)
VH: QVQLVQSGAEVKKPGASVKVSCKASGYNVNQTGLSWVRQAPGQGLEWMGWINYDGGNTQYGQEFQGRVTMTTDTSTSTAYMELRSLRSDDTAVYYCARDSSSSWARWFFDLWGRGTLVTVSS
VL: SYVLTQPPSVSVAPGKTARIPCGGNIIGSKLVHWYQQKPGQAPVLIVFDDEDRPSGIPERFSGSNSGNTATLTISRVEAGDEADYYCQVWDTGSDPVVFGGGTKLTVL
Q: B1 was tested. Which binding did it give?
A: Its binding is “binds”.
